{"source": "PubChem BioAssay AID1159508 (Drosophila RNAi Screening Center, 2015)", "purpose": "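Overall cell fitness after RNAi as a quality check of the library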", "system": "Drosophila S2R+ cells", "reagents": "long dsRNA against Drosophila genes", "timing": "5 days", "detection": "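Luminescent ATP signal as a proxy for cell fitness after 5 days of RNAi, given as a z-score in each replicate and averaged over replicates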", "reading the numbers": "mean ATP z-score: higher = more total ATP luminescence", "active means": "In these data the active calls have mean ATP z-score at about -2 or lower, or at about 2 or higher", "meaning of the calls": "active = strong ATP change (up or down); inactive = no strong ATP change", "note": "In all, the deposit lists 812 reagents; below is a random part of them. 18 of them (2.2%) count as active. 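Calls include both increased and decreased ATP; roughly one in four reagents has no third replicate value.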 A number with no mark means an inactive call. Further read-outs or replicates are left out here. Not given: the amount of reagent."}
{"gene": "Hrb87F (Heterogeneous nuclear ribonucleoprotein at 87F)", "DRSC id": "DRSC29600", "mean ATP z-score": 0.603}
{"gene": "Hrb87F (Heterogeneous nuclear ribonucleoprotein at 87F)", "DRSC id": "DRSC35793", "mean ATP z-score": 0.0489}
{"gene": "U2af38 (U2 small nuclear riboprotein auxiliary factor 38)", "DRSC id": "DRSC00796", "mean ATP z-score": -0.788}
{"gene": "U2af38 (U2 small nuclear riboprotein auxiliary factor 38)", "DRSC id": "DRSC28068", "mean ATP z-score": -0.321}

Reformatted: entries from further up
| gene | DRSC id | mean ATP z-score |
| --- | --- | --- |
| Hrb87F (Heterogeneous nuclear ribonucleoprotein at 87F) | DRSC35793 | 0.0489 |
| U2af38 (U2 small nuclear riboprotein auxiliary factor 38) | DRSC00796 | -0.788 |

The listing continues.
{"gene": "Srp54 (Splicing regulatory protein 54)", "DRSC id": "DRSC03442", "mean ATP z-score": -0.687}
{"gene": "Srp54 (Splicing regulatory protein 54)", "DRSC id": "DRSC32627", "mean ATP z-score": -0.495}
{"gene": "Pus1 (Pseudouridine synthase 1)", "DRSC id": "DRSC15548", "mean ATP z-score": -0.552}
{"gene": "Pus1 (Pseudouridine synthase 1)", "DRSC id": "DRSC27461", "mean ATP z-score": 0.153}
{"gene": "CG13690", "DRSC id": "DRSC00359", "mean ATP z-score": -0.564}
{"gene": "CG13690", "DRSC id": "DRSC42658", "mean ATP z-score": 0.888}
{"gene": "exu (exuperantia)", "DRSC id": "DRSC07615", "mean ATP z-score": 0.461}
{"gene": "exu (exuperantia)", "DRSC id": "DRSC42214", "mean ATP z-score": 0.378}
{"gene": "rin (rasputin)", "DRSC id": "DRSC22997", "mean ATP z-score": 1.3}
{"gene": "rin (rasputin)", "DRSC id": "DRSC33099", "mean ATP z-score": 1.66}
